Our source for the binding values is publication PMC5081203.

Results are given in words; binding and its absence hold for the method and conditions named. A result given as binding can be weak or reduced; the word gives no strength. Sequences can lack the tags named with a protein.

Common to all, as to test: pull-down; GST-tagged Zasp52 proteins held on glutathione-agarose beads, washed, then rabbit skeletal muscle α-actinin added for 3 hours at 4°C; final washes with 150 mM NaCl and 0.2% Triton X-100; SDS-PAGE and immunoblotting; both purified
(In general: Immunoblotting shows a protein as a band on a membrane.)

Test [1] addresses T1, GST-Zasp52-PDZ (Drosophila melanogaster) (UniProt A1ZA47).
T1 sequence: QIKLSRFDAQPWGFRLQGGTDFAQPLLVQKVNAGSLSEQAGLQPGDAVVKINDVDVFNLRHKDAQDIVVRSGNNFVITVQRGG

Test [2] addresses T2, GST-Zasp52-STOP112 (Drosophila melanogaster) (UniProt A1ZA47).
T2 sequence: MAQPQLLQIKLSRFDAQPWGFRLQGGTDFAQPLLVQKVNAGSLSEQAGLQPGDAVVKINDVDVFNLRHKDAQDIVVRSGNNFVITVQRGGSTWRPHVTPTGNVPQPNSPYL

Test [3] addresses T3, GST-Zasp52-STOP143 (Drosophila melanogaster) (UniProt A1ZA47).
T3 sequence: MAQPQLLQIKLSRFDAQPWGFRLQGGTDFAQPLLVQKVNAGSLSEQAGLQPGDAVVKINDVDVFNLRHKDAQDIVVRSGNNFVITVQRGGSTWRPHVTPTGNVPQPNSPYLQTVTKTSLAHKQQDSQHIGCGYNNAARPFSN

For test [4], the target named is T4, GST-Zasp52-STOP155 (Drosophila melanogaster) (UniProt A1ZA47).
T4 sequence: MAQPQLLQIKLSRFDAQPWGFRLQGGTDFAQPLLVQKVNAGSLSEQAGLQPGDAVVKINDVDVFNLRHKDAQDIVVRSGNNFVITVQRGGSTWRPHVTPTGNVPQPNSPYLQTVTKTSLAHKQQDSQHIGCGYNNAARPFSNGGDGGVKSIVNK

As to “rabbit skeletal muscle α-actinin (Cytoskeleton)”, the binding entry is on record as “binds weakly” in test [1], “binds weakly” in test [2], “binds” in test [3] and “binds” in test [4].
